Reference: US8685974B2 (Bayer CropScience AG, priority 2009, dated 2014)
Some entries share one result that the patent states for a list of compounds.

Tests used:
Leptosphaeria nodorum = Leptosphaeria nodorum test (wheat) / protective; assay type: in vivo; conditions: 500 ppm active compound, protective spray, evaluated 7-9 days after inoculation
Procedure: Leptosphaeria nodorum Test (Wheat)/Protective
(§1) Solvent: 49 parts by weight of N,N-dimethylformamide
(§2) Emulsifier: 1 part by weight of alkylaryl polyglycol ether
(§3) To produce a suitable preparation of active compound, 1 part by weight of active compound is mixed with the stated amounts of solvent and emulsifier, and the concentrate is diluted with water to the desired concentration.
To test for protective activity, young wheat plants are sprayed with the preparation of active compound at the stated application rate. […] The plants are then placed in a greenhouse at 90% rel. atmospheric humidity and a temperature of 22° C.
Evaluation is carried out 7-9 days after the inoculation. 0% means an efficacy which corresponds to that of the control, whereas an efficacy of 100% means that no infection is observed.

Alternaria solani = assay: Alternaria test (tomato) / protective; assay type: in vivo; conditions: 500 ppm active compound, protective spray, evaluated 7 days after inoculation
Procedure: Alternaria Test (Tomato)/Protective
as §1, §2, §3
To test for protective activity, young tomato plants are sprayed with the preparation of active compound at the stated application rate. […] The plants then remain at 96% rel. atmospheric humidity and a temperature of 20° C.
Evaluation is carried out 7 days after the inoculation. 0% means an efficacy which corresponds to that of the control, whereas an efficacy of 100% means that no infection is observed.

Plasmopara viticola = assay: In vivo test on Plasmopara parasitica (vine downy mildew); conditions: dose of 500 ppm; vine plants; grading 7 to 8 days after contamination
[1] = tested on: Mycosphaerella graminicola; assay: In vivo test on Mycosphaerella graminicola (wheat leaf spot); conditions: dose of 500 ppm; wheat plants; grading 21 to 28 days after contamination
Procedure: In Vivo Test on Mycosphaerella graminicola (Wheat Leaf Spot)
The active ingredients tested are prepared by homogenization in a mixture of acetone/tween/DMSO, then diluted with water to obtain the desired active material concentration.
Wheat plants (Scipion variety), sown on a 50/50 peat soil-pozzolana substrate in starter cups and grown at 12° C., are treated at the 1-leaf stage (10 cm tall) by spraying with the aqueous suspension described above. Plants, used as controls, are treated with an aqueous solution not containing the active material.
After 24 hours, the plants are contaminated by spraying them with an aqueous suspension of Mycosphaerella graminicola spores (500 000 spores per ml). The spores are collected from a 7-day-old culture. The contaminated wheat plants are incubated for 72 hours at 18° C. and at 100% relative humidity, and then for 21 to 28 days at 90% relative humidity.
Grading (% of efficacy) is carried out 21 to 28 days after the contamination, in comparison with the control plants.

| SMILES | efficacy (Leptosphaeria nodorum) [%] | efficacy (Alternaria solani) [%] | protection (Plasmopara viticola) | protection (% of efficacy) [1] |
| --- | --- | --- | --- | --- |
| Clc1ccc(-c2n[nH]cc2-c2ccncn2)s1 [Example 3] | ≥ 70 | – | – | – |
| CC(=O)n1cc(-c2ccncn2)c(-c2ccc(Cl)s2)n1 [Example 4] | ≥ 70 | ≥ 70 | – | – |
| CC(C)=CCn1cc(-c2ccncc2)c(-c2ccc(Cl)s2)n1 [Example 7] | – | ≥ 70 | at least 70% | – |
| CCC(C)n1cc(-c2ccncc2)c(-c2ccc(Cl)s2)n1 (centres unmarked) [Example 8] | ≥ 70 | ≥ 70 | – | – |
| CC(C)CC(C)n1cc(-c2ccncc2)c(-c2ccc(Cl)s2)n1 (centres unmarked) [Example 13] | ≥ 70 | ≥ 70 | – | – |
| Clc1ccc(-c2nn(C3CCCC3)cc2-c2ccncc2)s1 [Example 15] | ≥ 70 | ≥ 70 | at least 70% | – |
| Clc1ccc(-c2c(-c3ccncc3)cnn2C2CCCC2)s1 [Example 16] | ≥ 70 | – | – | – |
| Clc1ccc(-c2nn(C3CC3)cc2-c2ccncc2)s1 [Example 66] | – | – | – | at least 70% |
